The list shows only some results of the screen, not a fair sample: it gathers tests that were run many times, whatever their T/C, doses with no T/C, and many T/C values between a quarter and a half above the control. Further doses and runs are listed elsewhere. T/C: endpoint of the treated group in % of that of the vehicle group. Some doses have a count of surviving animals in place of a T/C: the source files T/C as zero there, which appears to mark a toxic dose or a test without result, not a measured value. Some doses without a T/C left all or most animals alive at the check, yet need not have been tolerated: survival well below the control is almost never listed, so the zero probably covers shortened survival too. Survivors were counted at the toxicity check, usually on the fifth day, unless a day is given; later deaths do not show. Schedule codes are those of the source, read here as Q, the interval in days (D) or hours (H), X, the number of doses. Some schedules carry Z or #; the key to these is not given. Where survival is the endpoint, the PubChem record calls one and a half times the control and up active, and a quarter to a half above the control has no call in these data; cut-offs in other NCI protocols can differ. Some entries were tested several times; their values stand side by side, smallest first. Brackets with × stand for listed records that agree.
Tested on: L1210 leukemia ip in BDF1 mice, survival T/C
Assay: NCI In Vivo Anticancer Drug Screen. Data for tumor model L1210 Leukemia (intraperitoneal) in B6D2F1 (BDF1) mice
Conditions: T/C endpoint: mean survival time, higher T/C = longer survival

## N=[N+]=CC(=O)OCC(N)C(=O)O (stereo not given)
dose: 24.0 mg/kg/injection, schedule: Q03DX006 (ip), vehicle: saline
  T/C: 148 % of control
dose: 25.0 mg/kg/injection, schedule: Q01DX010 (ip), vehicle: saline
  T/C: 97, 107, 123, 132 % of control
dose: 26.0 mg/kg/injection, schedule: Q01DX009 (ip), vehicle: saline
  T/C: 127 % of control
dose: 28.0 mg/kg/injection, schedule: Q01DX001 (ip), vehicle: saline
  T/C: 127 % of control
dose: 28.0 mg/kg/injection, schedule: Q07DX003 (ip), vehicle: saline
  T/C: 132 % of control
dose: 28.0 mg/kg/injection, schedule: Q## X004 (ip), vehicle: saline
  T/C: 128 % of control
dose: 32.0 mg/kg/injection, schedule: Q01DX001 (oral), vehicle: saline
  T/C: 136 % of control
dose: 32.0 mg/kg/injection, schedule: Q01DX006 (iv), vehicle: saline
  T/C: 142 % of control
dose: 32.0 mg/kg/injection, schedule: Q01DX009 (ip), vehicle: saline
  T/C: 145 % of control
dose: 32.0 mg/kg/injection, schedule: Q01DX009 (oral), vehicle: saline, evaluated on day 40
  T/C: 141 % of control
dose: 32.0 mg/kg/injection, schedule: Q01DX009 (oral), vehicle: saline, evaluated on day 60
  T/C: 139 and 140 % of control
dose: 32.0 mg/kg/injection, schedule: Q01DX Z (im), vehicle: saline
  T/C: 142 % of control
dose: 32.0 mg/kg/injection, schedule: Q01DX Z (oral), vehicle: saline
  T/C: 137 % of control
dose: 32.0 mg/kg/injection, schedule: Q03HX024 (oral), vehicle: saline
  T/C: 130 and 134 % of control
dose: 32.0 mg/kg/injection, schedule: Q04DX003 (oral), vehicle: saline
  T/C: 128 % of control
dose: 32.0 mg/kg/injection, schedule: Q## X003 (ip), vehicle: saline
  T/C: 135 % of control
dose: 32.0 mg/kg/injection, schedule: Q## X008 (ip), vehicle: saline
  T/C: 137 % of control
dose: 32.0 mg/kg/injection, schedule: Q## X024 (oral), vehicle: saline
  T/C: 126 % of control
dose: 34.0 mg/kg/injection, schedule: Q02DX010 (ip), vehicle: carboxymethylcellulose (CMC)
  T/C: 130 % of control
dose: 34.5 mg/kg/injection, schedule: Q02DX010 (ip), vehicle: carboxymethylcellulose (CMC)
  T/C: 147, 153, 159, 170, 182 % of control
dose: 35.0 mg/kg/injection, schedule: Q02DX010 (ip), vehicle: carboxymethylcellulose (CMC)
  T/C: 136 % of control
dose: 36.0 mg/kg/injection, schedule: Q02DX010 (ip), vehicle: carboxymethylcellulose (CMC)
  T/C: 128, 140, 141, 165 % of control
dose: 36.0 mg/kg/injection, schedule: Q02DX010 (ip), vehicle: other
  T/C: 137 % of control
dose: 40.0 mg/kg/injection, schedule: Q04DX002 (ip), vehicle: saline
  T/C: 123, 124, 125, 153 % of control
dose: 42.0 mg/kg/injection, schedule: Q## X004 (ip), vehicle: saline
  T/C: 144 % of control
dose: 43.0 mg/kg/injection, schedule: Q01DX001 (ip), vehicle: saline
  T/C: 125 % of control
dose: 47.6 mg/kg/injection, schedule: Q02DX010 (ip), vehicle: carboxymethylcellulose (CMC)
  T/C: 132 % of control
dose: 48.0 mg/kg/injection, schedule: Q03DX006 (ip), vehicle: saline
  T/C: 125 % of control
dose: 50.0 mg/kg/injection, schedule: Q01DX001 (ip), vehicle: saline
  T/C: 126 % of control
dose: 50.0 mg/kg/injection, schedule: Q01DX010 (ip), vehicle: saline
  survivor count: 2 of 6
dose: 51.75 mg/kg/injection, schedule: Q02DX010 (ip), vehicle: carboxymethylcellulose (CMC)
  T/C: 112, 117 (2×), 118, 124 % of control
dose: 52.0 mg/kg/injection, schedule: Q02DX010 (ip), vehicle: carboxymethylcellulose (CMC)
  T/C: 128 % of control
dose: 54.0 mg/kg/injection, schedule: Q02DX010 (ip), vehicle: carboxymethylcellulose (CMC)
  T/C: 89, 109, 111, 132 % of control
dose: 56.0 mg/kg/injection, schedule: Q01DX001 (ip), vehicle: saline
  T/C: 125 % of control
dose: 56.0 mg/kg/injection, schedule: Q07DX003 (ip), vehicle: saline
  T/C: 149 % of control
dose: 63.0 mg/kg/injection, schedule: Q## X004 (ip), vehicle: saline
  T/C: 130 % of control
dose: 64.0 mg/kg/injection, schedule: Q01DX006 (iv), vehicle: saline
  survivor count: 6 of 6
dose: 64.0 mg/kg/injection, schedule: Q01DX009 (oral), vehicle: saline, evaluated on day 40
  T/C: 125 % of control
dose: 64.0 mg/kg/injection, schedule: Q01DX009 (oral), vehicle: saline, evaluated on day 60
  T/C: 133 % of control
dose: 64.0 mg/kg/injection, schedule: Q01DX009 (oral), vehicle: saline
  survivor count: 5 of 8
dose: 64.0 mg/kg/injection, schedule: Q01DX Z (im), vehicle: saline
  survivor count: 4 of 6
dose: 64.0 mg/kg/injection, schedule: Q01DX Z (ip), vehicle: saline
  survivor count: 1 of 6
dose: 64.0 mg/kg/injection, schedule: Q01DX Z (oral), vehicle: saline
  survivor count: 5 of 6
dose: 64.0 mg/kg/injection, schedule: Q01DX Z (sc), vehicle: saline
  survivor count: 6 of 6
dose: 64.0 mg/kg/injection, schedule: Q## X003 (ip), vehicle: saline
  T/C: 133 % of control

From PubChem BioAssay AID248 (DTP/NCI, 2004)
